No constants are given. Whether binding was seen depends on the method and setting. Binding seen in cells or lysates may run through a third protein. Binding can be weak; no strength is given.

Sequences of proteins named here, by UniProt entry; tags and fusion partners are left off. A change or cut given only in a name is not applied to a line headed by its entry.
UniProt Q8CHK4: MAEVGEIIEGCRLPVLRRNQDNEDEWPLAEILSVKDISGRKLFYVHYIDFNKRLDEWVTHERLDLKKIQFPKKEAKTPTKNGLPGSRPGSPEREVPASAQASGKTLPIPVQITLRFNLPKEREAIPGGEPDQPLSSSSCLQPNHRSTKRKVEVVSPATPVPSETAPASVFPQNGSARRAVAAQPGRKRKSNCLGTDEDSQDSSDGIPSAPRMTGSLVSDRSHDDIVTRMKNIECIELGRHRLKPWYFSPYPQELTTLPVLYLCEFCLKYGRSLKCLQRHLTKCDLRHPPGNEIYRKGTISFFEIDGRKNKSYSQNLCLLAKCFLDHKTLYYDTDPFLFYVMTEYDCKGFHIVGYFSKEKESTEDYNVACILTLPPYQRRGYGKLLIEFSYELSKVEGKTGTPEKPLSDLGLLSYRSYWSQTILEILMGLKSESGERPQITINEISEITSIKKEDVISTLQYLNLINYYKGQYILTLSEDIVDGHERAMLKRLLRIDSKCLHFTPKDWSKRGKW
UniProt Q9Z2V5: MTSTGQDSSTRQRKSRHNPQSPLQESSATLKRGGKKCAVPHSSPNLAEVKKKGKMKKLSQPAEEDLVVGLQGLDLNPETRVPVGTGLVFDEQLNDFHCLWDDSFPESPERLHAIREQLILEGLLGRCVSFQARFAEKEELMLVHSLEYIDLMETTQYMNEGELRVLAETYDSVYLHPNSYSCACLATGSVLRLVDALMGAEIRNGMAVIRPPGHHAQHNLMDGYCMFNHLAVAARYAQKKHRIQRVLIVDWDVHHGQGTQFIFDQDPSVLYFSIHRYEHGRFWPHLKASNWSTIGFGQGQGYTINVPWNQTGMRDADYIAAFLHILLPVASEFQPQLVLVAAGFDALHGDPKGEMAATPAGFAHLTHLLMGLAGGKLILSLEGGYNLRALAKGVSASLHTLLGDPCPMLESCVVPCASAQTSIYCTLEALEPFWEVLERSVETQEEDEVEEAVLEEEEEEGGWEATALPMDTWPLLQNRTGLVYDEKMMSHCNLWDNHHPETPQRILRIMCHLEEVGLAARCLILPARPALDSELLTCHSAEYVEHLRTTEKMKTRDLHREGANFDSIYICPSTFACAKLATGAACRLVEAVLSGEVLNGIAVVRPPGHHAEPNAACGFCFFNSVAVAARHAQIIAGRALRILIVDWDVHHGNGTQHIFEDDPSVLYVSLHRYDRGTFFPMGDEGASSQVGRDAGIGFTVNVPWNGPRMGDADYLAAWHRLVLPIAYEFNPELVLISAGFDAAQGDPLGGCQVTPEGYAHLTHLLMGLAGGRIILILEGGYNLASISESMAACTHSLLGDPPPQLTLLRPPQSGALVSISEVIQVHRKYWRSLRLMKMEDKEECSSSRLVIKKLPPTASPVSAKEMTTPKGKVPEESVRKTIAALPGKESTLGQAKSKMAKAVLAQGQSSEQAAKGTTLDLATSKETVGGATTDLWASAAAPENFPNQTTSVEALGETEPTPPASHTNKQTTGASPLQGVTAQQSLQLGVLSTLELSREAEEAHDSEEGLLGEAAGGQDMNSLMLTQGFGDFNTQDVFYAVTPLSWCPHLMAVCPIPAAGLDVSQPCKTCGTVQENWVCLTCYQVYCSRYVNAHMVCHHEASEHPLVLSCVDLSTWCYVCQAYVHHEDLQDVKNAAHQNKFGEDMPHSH

This test deals with Tip60-H3F (Tip60 with a C-terminal 6-histidine-3-FLAG tag, from the endogenous gene) in ESCs (mouse (endogenous in ESCs)) (UniProt Q8CHK4). Kind of test: co-IP; Tip60-H3F immunoprecipitated with anti-FLAG (FLAG-M2 Agarose) from nuclear extracts (ESCs; NSCs), Western blot; IP buffer 50 mM Tris-HCl pH7.4, 250 mM NaCl, 0.1% Triton X-100, overnight at 4°C; also with DNase I or ethidium bromide, with high-salt washes, and with five additional washes with or without 10 uM tubastatin A. In general terms: In western blotting, separated proteins are transferred to a membrane and probed.

Turning to “HA-tagged Hdac6 deacetylase domain 1 (HD1) mutant (from UniProt Q9Z2V5)”, the binding entry is “binds”.

Values taken from publication PMC3843111.
